# Experimental data from the supplement of paper PMC8728848.
# This is one part of the list.
# B1: MFG-E8 (Homo sapiens), Q08431 (protein)
# chain: MPRPRLLAALCGALLCAPSLLVALDICSKNPCHNGGLCEEISQEVRGDVFPSYTCTCLKGYAGNHCETKCVEPLGLENGNIANSQIAASSVRVTFLGLQHWVPELARLNRAGMVNAWTPSSNDDNPWIQVNLLRRMWVTGVVTQGASRLASHEYLKAFKVAYSLNGHEFDFIHDVNKKHKEFVGNWNKNAVHVNLFETPVEAQYVRLYPTSCHTACTLRFELLGCELNGCANPLGLKNNSIPDKQITASSSYKTWGLHLFSWNPSYARLDKQGNFNAWVAGSYGNDQWLQVDLGSSKEVTGIITQGARNFGSVQFVASYKVAYSNDSANWTEYQDPRTGSSKIFPGNWDNHSHKKNLFETPILARYVRILPVAWHNRIALRLELLGC
# Key:
# Test in all cases: glycan array binding signal (z-score within array); higher = stronger binding
# Settings in all cases: glycan notation: IUPAC condensed, linker removed
# [1] = target: Gal(b1-3)GlcNAc(a1-6)Gal(b1-4)GlcNAc
# Procedure, shortened: (§1)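 Columns mapping to the same glycan were averaged after glycan names were converted to IUPAC-condensed notation. The data come from 3228 arrays in the Consortium for Functional Glycomics database, limited to those with an available protein sequence. Binding is reported as a within-array Z-score averaged across arrays of one protein sequence and across linkers.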
# [2] = target: Gal(b1-3)GlcNAc(b1-2)Man(a1-3)[Gal(b1-3)GlcNAc(b1-2)Man(a1-6)]Man(b1-4)GlcNAc(b1-4)GlcNAc
# Procedure, shortened: as §1
# [3] = target: Gal(b1-3)GlcNAc(b1-2)Man(a1-3)[Gal(b1-3)GlcNAc(b1-2)Man(a1-6)]Man(b1-4)GlcNAc(b1-4)[Fuc(a1-6)]GlcNAc
# Procedure, shortened: as §1
# [4] = target: Gal(b1-3)GlcNAc(b1-2)[Gal(b1-3)GlcNAc(b1-6)]Man(a1-6)[Gal(b1-3)GlcNAc(b1-2)Man(a1-3)]Man(b1-4)GlcNAc(b1-4)GlcNAc
# Procedure, shortened: as §1
# [5] = target: Gal(b1-3)GlcNAc(b1-3)Gal(b1-3)GlcNAc
# Procedure, shortened: as §1
# [6] = target: Gal(b1-3)GlcNAc(b1-3)Gal(b1-4)Glc
# Procedure, shortened: as §1
# [7] = target: Gal(b1-3)GlcNAc(b1-3)Gal(b1-4)GlcNAc
# Procedure, shortened: as §1
# [8] = target: Gal(b1-3)GlcNAc(b1-3)Gal(b1-4)GlcNAc(b1-6)[Gal(b1-3)GlcNAc(b1-3)]Gal(b1-4)Glc
# Procedure, shortened: as §1
# [9] = target: Gal(b1-3)GlcNAc(b1-3)Gal(b1-4)[Fuc(a1-3)]GlcNAc(b1-6)[Gal(b1-3)GlcNAc(b1-3)]Gal(b1-4)Glc
# Procedure, shortened: as §1
# [10] = target: Gal(b1-3)GlcNAc(b1-3)GalNAc
# Procedure, shortened: as §1
# [11] = target: Gal(b1-3)GlcNAc(b1-6)Gal(b1-4)GlcNAc
# Procedure, shortened: as §1
# [12] = target: Gal(b1-3)[Fuc(a1-4)]GlcNAc
# Procedure, shortened: as §1
# [13] = target: Gal(b1-3)[Fuc(a1-4)]GlcNAc(b1-2)Man(a1-3)[Gal(b1-3)[Fuc(a1-4)]GlcNAc(b1-2)Man(a1-6)]Man(b1-4)GlcNAc(b1-4)GlcNAc
# Procedure, shortened: as §1
# [14] = target: Gal(b1-3)[Fuc(a1-4)]GlcNAc(b1-2)Man(a1-3)[Gal(b1-3)[Fuc(a1-4)]GlcNAc(b1-2)Man(a1-6)]Man(b1-4)GlcNAc(b1-4)[Fuc(a1-6)]GlcNAc
# Procedure, shortened: as §1
# [15] = target: Gal(b1-3)[Fuc(a1-4)]GlcNAc(b1-3)Gal(b1-3)[Fuc(a1-4)]GlcNAc
# Procedure, shortened: as §1
# [16] = target: Gal(b1-3)[Fuc(a1-4)]GlcNAc(b1-3)Gal(b1-4)GlcNAc
# Procedure, shortened: as §1
# [17] = target: Gal(b1-3)[Fuc(a1-4)]GlcNAc(b1-3)Gal(b1-4)[Fuc(a1-3)]GlcNAc
# Procedure, shortened: as §1
# [18] = target: Gal(b1-3)[GlcNAc(b1-6)]GalNAc
# Procedure, shortened: as §1
# [19] = target: Gal(b1-3)[Neu5Ac(a2-6)]GalNAc
# Procedure, shortened: as §1
# [20] = target: Gal(b1-3)[Neu5Ac(a2-6)]GlcNAc(b1-6)Gal(b1-4)Glc
# Procedure, shortened: as §1
# [21] = target: Gal(b1-3)[Neu5Ac(b2-6)]GalNAc
# Procedure, shortened: as §1
# [22] = target: Gal(b1-4)Gal
# Procedure, shortened: as §1
# [23] = target: Gal(b1-4)GalNAc(a1-3)[Fuc(a1-2)]Gal(b1-4)GlcNAc
# Procedure, shortened: as §1
# [24] = target: Gal(b1-4)GalNAc(b1-3)[Fuc(a1-2)]Gal(b1-4)GlcNAc
# Procedure, shortened: as §1
# [25] = target: Gal(b1-4)Glc
# Procedure, shortened: as §1
# [26] = target: Gal(b1-4)Glc6S
# Procedure, shortened: as §1
# [27] = target: Gal(b1-4)GlcNAc
# Procedure, shortened: as §1
# [28] = target: Gal(b1-4)GlcNAc(a1-6)Gal(b1-4)GlcNAc
# Procedure, shortened: as §1
# [29] = target: Gal(b1-4)GlcNAc(b1-2)Man
# Procedure, shortened: as §1
# [30] = target: Gal(b1-4)GlcNAc(b1-2)Man(a1-3)Man(b1-4)GlcNAc(b1-4)GlcNAc
# Procedure, shortened: as §1
# [31] = target: Gal(b1-4)GlcNAc(b1-2)Man(a1-3)[Gal(b1-4)GlcNAc(b1-2)Man(a1-6)]Man(b1-4)GlcNAc(b1-4)GlcNAc
# Procedure, shortened: as §1
# [32] = target: Gal(b1-4)GlcNAc(b1-2)Man(a1-3)[Gal(b1-4)GlcNAc(b1-2)Man(a1-6)]Man(b1-4)GlcNAc(b1-4)[Fuc(a1-6)]GlcNAc
# Procedure, shortened: as §1
# [33] = target: Gal(b1-4)GlcNAc(b1-2)Man(a1-3)[Gal(b1-4)GlcNAc(b1-2)][GlcNAc(b1-4)]Man(b1-4)GlcNAc(b1-4)GlcNAc
# Procedure, shortened: as §1
# [34] = target: Gal(b1-4)GlcNAc(b1-2)Man(a1-3)[GlcNAc(b1-2)Man(a1-6)]Man(b1-4)GlcNAc(b1-4)GlcNAc
# Procedure, shortened: as §1
# [35] = target: Gal(b1-4)GlcNAc(b1-2)Man(a1-3)[Man(a1-6)]Man(b1-4)GlcNAc(b1-4)GlcNAc
# Procedure, shortened: as §1
# [36] = target: Gal(b1-4)GlcNAc(b1-2)Man(a1-6)Man(b1-4)GlcNAc(b1-4)GlcNAc
# Procedure, shortened: as §1
# [37] = target: Gal(b1-4)GlcNAc(b1-2)Man(a1-6)[GlcNAc(b1-2)Man(a1-3)]Man(b1-4)GlcNAc(b1-4)GlcNAc
# Procedure, shortened: as §1
binder,measurement,setting,value
B1,glycan array binding signal (z-score),[1],-0.245
same,glycan array binding signal (z-score),[2],1.13
same,glycan array binding signal (z-score),[3],-0.504
same,glycan array binding signal (z-score),[4],0.101
same,glycan array binding signal (z-score),[5],-0.127
same,glycan array binding signal (z-score),[6],-0.396
same,glycan array binding signal (z-score),[7],0.204
same,glycan array binding signal (z-score),[8],2.38
same,glycan array binding signal (z-score),[9],1.03
same,glycan array binding signal (z-score),[10],-0.341
same,glycan array binding signal (z-score),[11],-0.672
same,glycan array binding signal (z-score),[12],-0.727
same,glycan array binding signal (z-score),[13],-0.347
same,glycan array binding signal (z-score),[14],-0.613
same,glycan array binding signal (z-score),[15],-0.395
same,glycan array binding signal (z-score),[16],-0.074
same,glycan array binding signal (z-score),[17],-0.366
same,glycan array binding signal (z-score),[18],-0.239
same,glycan array binding signal (z-score),[19],0.87
same,glycan array binding signal (z-score),[20],2.13
same,glycan array binding signal (z-score),[21],0.07
same,glycan array binding signal (z-score),[22],-0.56
same,glycan array binding signal (z-score),[23],-0.634
same,glycan array binding signal (z-score),[24],-0.081
same,glycan array binding signal (z-score),[25],-0.674
same,glycan array binding signal (z-score),[26],-0.377
same,glycan array binding signal (z-score),[27],-0.753
same,glycan array binding signal (z-score),[28],-0.439
same,glycan array binding signal (z-score),[29],-0.61
same,glycan array binding signal (z-score),[30],-0.14
same,glycan array binding signal (z-score),[31],2.08
same,glycan array binding signal (z-score),[32],-0.623
same,glycan array binding signal (z-score),[33],-0.322
same,glycan array binding signal (z-score),[34],0.125
same,glycan array binding signal (z-score),[35],-0.19
same,glycan array binding signal (z-score),[36],1.26
same,glycan array binding signal (z-score),[37],0.824

# Reformatted with tabs: part of the list above.
binder	measurement	setting	value
B1	glycan array binding signal (z-score)	[27]	-0.753
same	glycan array binding signal (z-score)	[28]	-0.439
same	glycan array binding signal (z-score)	[29]	-0.61
same	glycan array binding signal (z-score)	[30]	-0.14
same	glycan array binding signal (z-score)	[31]	2.08
same	glycan array binding signal (z-score)	[32]	-0.623
